# Results as given in the supplement of paper PMC10849652.
# The chains behind the UniProt entries cited, without tags or fusion partners. Where a name states a change or a piece, a line headed by the entry shows the natural chain unless it says otherwise.
# UniProt O94901, whole entry, looked up: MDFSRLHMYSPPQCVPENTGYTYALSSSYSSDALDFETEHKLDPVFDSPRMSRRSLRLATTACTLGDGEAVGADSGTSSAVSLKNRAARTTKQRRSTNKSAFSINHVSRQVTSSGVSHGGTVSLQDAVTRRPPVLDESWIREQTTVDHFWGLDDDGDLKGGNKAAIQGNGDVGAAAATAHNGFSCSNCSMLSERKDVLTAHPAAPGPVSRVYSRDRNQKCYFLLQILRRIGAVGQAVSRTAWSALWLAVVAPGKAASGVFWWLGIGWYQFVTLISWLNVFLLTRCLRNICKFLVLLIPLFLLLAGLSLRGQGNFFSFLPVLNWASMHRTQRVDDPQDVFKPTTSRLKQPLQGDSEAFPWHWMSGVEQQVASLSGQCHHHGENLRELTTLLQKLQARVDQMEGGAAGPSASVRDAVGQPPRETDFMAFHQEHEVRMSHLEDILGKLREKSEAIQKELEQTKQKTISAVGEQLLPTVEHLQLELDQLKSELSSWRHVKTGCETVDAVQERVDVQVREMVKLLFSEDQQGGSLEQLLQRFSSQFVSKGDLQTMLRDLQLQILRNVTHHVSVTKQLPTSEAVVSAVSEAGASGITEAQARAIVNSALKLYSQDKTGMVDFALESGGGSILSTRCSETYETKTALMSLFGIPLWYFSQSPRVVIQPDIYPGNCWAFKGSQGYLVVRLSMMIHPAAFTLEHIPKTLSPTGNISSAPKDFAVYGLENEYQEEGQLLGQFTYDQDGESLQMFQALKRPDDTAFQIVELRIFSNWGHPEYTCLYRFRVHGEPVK
# UniProt Q8IWZ8: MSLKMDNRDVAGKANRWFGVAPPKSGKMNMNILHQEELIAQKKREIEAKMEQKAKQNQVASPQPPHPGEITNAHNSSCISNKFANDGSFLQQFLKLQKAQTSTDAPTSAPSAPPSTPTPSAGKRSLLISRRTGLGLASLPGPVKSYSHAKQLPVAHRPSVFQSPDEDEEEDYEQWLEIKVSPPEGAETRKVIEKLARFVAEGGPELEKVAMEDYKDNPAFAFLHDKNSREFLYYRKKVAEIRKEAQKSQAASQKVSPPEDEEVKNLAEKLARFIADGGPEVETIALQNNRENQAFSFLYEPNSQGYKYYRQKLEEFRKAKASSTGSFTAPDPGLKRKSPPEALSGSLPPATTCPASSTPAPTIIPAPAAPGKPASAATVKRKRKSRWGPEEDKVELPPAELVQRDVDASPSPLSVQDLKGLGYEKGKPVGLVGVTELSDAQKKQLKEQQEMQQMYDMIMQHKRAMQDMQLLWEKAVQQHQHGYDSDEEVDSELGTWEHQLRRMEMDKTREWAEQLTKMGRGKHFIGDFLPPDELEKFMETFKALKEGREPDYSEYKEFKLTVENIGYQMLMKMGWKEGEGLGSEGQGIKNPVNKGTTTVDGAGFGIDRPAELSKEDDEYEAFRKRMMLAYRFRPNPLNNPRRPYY
# UniProt O00268, whole entry, looked up: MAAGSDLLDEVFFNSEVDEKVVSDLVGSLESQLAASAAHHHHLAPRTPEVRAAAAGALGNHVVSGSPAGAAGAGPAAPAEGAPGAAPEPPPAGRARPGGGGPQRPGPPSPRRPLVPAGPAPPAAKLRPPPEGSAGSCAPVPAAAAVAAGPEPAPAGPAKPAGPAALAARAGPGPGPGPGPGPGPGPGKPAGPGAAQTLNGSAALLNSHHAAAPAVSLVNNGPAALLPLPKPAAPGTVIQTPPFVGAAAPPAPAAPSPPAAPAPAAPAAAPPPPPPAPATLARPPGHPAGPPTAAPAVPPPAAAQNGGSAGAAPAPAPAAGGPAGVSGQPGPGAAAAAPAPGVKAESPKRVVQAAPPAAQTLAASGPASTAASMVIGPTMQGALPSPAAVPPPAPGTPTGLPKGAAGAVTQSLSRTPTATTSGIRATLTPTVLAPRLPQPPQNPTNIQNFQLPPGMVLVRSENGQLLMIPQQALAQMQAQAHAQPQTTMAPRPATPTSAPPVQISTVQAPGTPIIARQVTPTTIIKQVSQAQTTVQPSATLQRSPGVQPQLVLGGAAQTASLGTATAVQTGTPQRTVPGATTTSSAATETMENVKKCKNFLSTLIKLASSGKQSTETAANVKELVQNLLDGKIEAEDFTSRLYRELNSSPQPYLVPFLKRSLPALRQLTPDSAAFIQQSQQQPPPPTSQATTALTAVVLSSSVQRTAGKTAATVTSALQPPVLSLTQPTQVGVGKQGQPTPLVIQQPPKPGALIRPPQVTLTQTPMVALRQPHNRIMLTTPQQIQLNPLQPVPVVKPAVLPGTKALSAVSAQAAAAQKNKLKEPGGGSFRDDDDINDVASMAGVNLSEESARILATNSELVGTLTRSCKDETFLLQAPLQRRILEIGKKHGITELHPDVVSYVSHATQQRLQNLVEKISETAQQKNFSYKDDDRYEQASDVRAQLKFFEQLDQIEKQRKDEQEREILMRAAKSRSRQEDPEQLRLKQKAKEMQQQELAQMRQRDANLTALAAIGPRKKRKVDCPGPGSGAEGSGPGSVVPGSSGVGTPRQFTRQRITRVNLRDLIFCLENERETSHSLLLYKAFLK
# UniProt Q8NBK3: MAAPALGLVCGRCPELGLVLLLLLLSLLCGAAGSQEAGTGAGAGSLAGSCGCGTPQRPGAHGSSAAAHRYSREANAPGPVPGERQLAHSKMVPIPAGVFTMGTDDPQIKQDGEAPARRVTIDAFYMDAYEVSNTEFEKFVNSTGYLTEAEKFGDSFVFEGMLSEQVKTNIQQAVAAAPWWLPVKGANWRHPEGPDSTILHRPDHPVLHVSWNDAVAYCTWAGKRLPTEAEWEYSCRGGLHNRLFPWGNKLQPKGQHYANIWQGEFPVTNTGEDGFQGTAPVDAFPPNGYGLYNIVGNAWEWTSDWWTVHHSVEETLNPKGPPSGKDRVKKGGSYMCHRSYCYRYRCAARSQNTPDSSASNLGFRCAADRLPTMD
# UniProt O15056: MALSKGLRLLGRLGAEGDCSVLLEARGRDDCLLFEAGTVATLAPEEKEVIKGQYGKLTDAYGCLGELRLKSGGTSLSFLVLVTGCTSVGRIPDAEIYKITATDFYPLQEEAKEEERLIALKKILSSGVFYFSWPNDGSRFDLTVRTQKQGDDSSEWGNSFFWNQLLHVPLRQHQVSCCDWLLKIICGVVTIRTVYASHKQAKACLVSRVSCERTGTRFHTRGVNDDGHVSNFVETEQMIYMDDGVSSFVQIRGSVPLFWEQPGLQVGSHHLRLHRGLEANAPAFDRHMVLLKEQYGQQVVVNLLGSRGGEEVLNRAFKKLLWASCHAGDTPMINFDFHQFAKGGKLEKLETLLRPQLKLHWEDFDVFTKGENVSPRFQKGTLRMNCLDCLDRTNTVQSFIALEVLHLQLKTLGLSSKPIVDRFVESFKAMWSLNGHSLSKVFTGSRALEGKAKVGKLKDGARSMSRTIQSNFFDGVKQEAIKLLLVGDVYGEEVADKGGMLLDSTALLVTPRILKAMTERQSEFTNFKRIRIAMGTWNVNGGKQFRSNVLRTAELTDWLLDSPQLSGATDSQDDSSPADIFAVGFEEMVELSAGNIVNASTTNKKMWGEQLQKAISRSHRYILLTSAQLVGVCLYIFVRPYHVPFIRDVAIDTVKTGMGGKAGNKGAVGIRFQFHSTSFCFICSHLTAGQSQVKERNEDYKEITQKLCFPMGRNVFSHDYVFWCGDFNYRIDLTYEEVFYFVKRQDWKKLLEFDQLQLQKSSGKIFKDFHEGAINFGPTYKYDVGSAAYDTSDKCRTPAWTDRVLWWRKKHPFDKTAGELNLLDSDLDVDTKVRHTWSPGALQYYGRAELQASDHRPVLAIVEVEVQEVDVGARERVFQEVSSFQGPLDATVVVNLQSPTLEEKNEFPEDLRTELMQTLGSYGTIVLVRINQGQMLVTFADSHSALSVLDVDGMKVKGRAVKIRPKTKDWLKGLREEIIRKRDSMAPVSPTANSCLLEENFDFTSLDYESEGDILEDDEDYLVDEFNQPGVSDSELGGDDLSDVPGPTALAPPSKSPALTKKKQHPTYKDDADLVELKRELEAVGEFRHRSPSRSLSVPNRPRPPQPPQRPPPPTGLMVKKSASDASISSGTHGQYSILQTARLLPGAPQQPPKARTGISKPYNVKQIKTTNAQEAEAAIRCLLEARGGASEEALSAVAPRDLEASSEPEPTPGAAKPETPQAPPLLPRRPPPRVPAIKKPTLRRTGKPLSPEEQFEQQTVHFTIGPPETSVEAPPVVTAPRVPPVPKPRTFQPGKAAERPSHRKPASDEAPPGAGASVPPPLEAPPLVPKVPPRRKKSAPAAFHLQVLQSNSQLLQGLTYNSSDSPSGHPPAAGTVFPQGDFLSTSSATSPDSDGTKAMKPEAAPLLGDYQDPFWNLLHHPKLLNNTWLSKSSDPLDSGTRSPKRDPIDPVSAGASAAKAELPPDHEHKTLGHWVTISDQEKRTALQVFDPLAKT
# UniProt Q9BW92: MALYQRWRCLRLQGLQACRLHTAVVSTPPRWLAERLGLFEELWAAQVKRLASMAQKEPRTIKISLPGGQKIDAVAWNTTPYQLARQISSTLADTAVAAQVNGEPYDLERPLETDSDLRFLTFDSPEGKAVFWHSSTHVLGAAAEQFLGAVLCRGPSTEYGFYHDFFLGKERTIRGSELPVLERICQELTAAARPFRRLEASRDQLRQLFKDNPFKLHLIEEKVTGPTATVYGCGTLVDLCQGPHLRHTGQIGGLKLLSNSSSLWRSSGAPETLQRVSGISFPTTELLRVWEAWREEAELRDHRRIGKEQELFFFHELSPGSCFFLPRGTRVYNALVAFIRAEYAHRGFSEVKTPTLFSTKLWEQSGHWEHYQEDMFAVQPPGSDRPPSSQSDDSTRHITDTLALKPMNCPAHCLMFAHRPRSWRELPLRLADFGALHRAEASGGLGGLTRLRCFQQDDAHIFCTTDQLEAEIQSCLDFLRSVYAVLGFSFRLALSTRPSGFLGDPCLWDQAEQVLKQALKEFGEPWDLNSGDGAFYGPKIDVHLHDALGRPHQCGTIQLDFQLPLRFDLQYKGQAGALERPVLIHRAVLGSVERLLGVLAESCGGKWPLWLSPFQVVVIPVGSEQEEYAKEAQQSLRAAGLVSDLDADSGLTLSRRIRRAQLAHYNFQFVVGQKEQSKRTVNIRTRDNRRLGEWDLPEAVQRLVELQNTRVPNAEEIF
# UniProt O60347: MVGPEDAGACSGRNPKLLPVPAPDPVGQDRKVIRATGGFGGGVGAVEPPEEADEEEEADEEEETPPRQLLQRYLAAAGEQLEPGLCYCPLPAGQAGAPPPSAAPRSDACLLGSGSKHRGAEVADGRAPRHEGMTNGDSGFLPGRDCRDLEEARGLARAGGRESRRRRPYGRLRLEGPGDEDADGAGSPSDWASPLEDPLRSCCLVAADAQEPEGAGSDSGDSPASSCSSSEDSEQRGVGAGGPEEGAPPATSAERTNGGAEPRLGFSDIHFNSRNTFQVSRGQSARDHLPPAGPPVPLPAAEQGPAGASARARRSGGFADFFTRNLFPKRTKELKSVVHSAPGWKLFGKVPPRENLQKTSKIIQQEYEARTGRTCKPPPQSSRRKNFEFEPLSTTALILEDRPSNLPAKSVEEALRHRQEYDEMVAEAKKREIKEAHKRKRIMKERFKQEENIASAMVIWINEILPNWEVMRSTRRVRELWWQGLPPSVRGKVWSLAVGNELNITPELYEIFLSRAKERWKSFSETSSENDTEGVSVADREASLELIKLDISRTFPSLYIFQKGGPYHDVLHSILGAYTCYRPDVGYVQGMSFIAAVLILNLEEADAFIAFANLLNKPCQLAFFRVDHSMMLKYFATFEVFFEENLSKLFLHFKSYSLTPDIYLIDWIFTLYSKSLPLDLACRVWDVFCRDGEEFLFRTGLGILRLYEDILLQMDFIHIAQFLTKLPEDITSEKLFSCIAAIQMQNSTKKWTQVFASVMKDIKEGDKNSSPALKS
# UniProt Q92844: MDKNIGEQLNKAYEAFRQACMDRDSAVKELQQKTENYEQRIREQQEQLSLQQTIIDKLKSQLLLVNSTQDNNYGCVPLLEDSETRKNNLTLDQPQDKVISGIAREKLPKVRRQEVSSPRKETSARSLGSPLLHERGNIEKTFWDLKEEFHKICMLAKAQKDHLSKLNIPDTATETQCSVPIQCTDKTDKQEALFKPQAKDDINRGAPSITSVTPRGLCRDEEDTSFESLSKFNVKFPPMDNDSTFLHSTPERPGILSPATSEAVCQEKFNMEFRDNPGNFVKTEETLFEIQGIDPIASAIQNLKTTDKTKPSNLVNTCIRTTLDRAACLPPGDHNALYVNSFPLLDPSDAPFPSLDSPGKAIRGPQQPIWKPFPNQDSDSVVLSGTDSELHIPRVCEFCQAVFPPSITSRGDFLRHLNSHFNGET
# This is one part of the list. Residues, ends and D or L forms follow the SMILES beside them. *: point of attachment. Cbz = O=C(OCc1ccccc1)*
# Legend:
# Experiment in all cases: log2 fold change, soluble protein after heating vs DMSO (PISA); higher = thermal stabilisation; K562 cells, 10 uM, 30 min; active = over 0.2 and 3.5 SD of the protein, either way, in both replicates (recomputed)
# [1] = compound: C#Cc1cccc(Nc2ncnc3cc(OCCOC)c(OCCOC)cc23)c1 [erlotinib]
# In short: (§1)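 Quantification of soluble protein used TMTpro 16plex LC-MS/MS, with channel sums equalised. Samples were the supernatant after 21,000xg for 90 min of pooled aliquots from K562 cells (2×10^6 cells/mL) treated with 10 μM compound for 30 min, heated for 3 min over 48°C-58°C, and extracted in PBS with 0.5% NP-40 at 4°C. Values, from duplicates, describe thermal stability against control samples on a log2 fold-change scale.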
# [2] = compound: C/C(=N\NC(=O)C1=CC(=CC=C1)S(=O)(=O)N2CCOCC2)/C3=C(C=CC(=C3)Cl)O
# In short: as §1
# [3] = compound: C1=CC(=CC=C1C2=NC3=C(N2)C=C(C=C3)C(=O)N)OC4=CC=C(C=C4)Cl
# In short: as §1
# [4] = compound: C1=CC2=C(C=CC(=C2)/C=C\3/C(=O)NC(=NCC4=CC=CS4)S3)N=C1
# In short: as §1
# [5] = compound: C1=CC2=NC=CN=C2C=C1/C=C/3\C(=O)NC(=O)S3
# In short: as §1
# [6] = compound: C1=CC=C(C=C1)C2=NC(=C(N2)C3=CC=NC=C3)C4=CC(=C(C=C4)Cl)O
# In short: as §1
# [7] = compound: C1=CC=C2C(=C1)C3=NNC4=CC=CC(=C43)C2=O
# In short: as §1
# [8] = compound: C1CCN(C1)C(=O)NC2=CC=CC(=C2)NC3=NC=C(C(=N3)NCCC4=CN=CN4)Br
# In short: as §1
# [9] = compound: C1CN(CCC1(CC2=CC=C(C=C2)Cl)N)C3=NC=NC4=C3C=CN4
# In short: as §1
# [10] = compound: C1COCCN1CCN2C3=CC=CC=C3N=C2NC(=O)C4=CC(=CC=C4)[N+](=O)[O-] [IRAK-1-4 Inhibitor I]
# In short: as §1
# [11] = compound: C=CC(=O)N1CCC[C@@H](n2nc(-c3ccc(Oc4ccccc4)cc3)c3c(N)ncnc32)C1 [ibrutinib]
# In short: as §1
# [12] = compound: CC(=O)c1cnc2ccc(-c3cc(Cl)c(O)c(Cl)c3)nc2c1N[C@H]1CC[C@H](CN(C)C)CC1
# In short: as §1
# [13] = compound: CC(C)(C)Cn1c(N)nc2ccc(-c3[nH]c(C(C)(C)C)nc3-c3ccc(F)cc3)nc21 [ralimetinib]
# In short: as §1
# [14] = compound: CC(C)C1=C2N=C(C=C(N2N=C1)NCC3=CC=CC=C3)NCCCCCCN
# In short: as §1
# [15] = compound: CC(C)C[C@@H](C=O)NC(=O)[C@H](CC(C)C)NC(=O)[C@H](CC(C)C)NC(=O)OCc1ccccc1
# In short: as §1
# [16] = compound: CC(C)N(C[C@H]1O[C@@H](n2cnc3c(N)ncnc32)[C@H](O)[C@@H]1O)[C@H]1C[C@@H](CCc2nc3cc(C(C)(C)C)ccc3[nH]2)C1 [pinometostat]
# In short: as §1
# [17] = compound: CC1=C(C2=C(C=C1)C(=O)C3=CC=CC=C3N2CCCN)C
# In short: as §1
# [18] = compound: C1=CC(=C(C=C1Cl)C2=NC3=NC=CN=C3C(=N2)NC4=CC=NC=C4)F
# In short: as §1
# [19] = compound: CC(C)(O)CC(=O)NCCn1ccc2ncnc(Nc3ccc(Oc4cccc(C(F)(F)F)c4)c(Cl)c3)c21
# In short: as §1
# [20] = compound: CC1=C(C(CC(=O)N1)C2=CC=C(C=C2)C(F)(F)F)C(=O)NC3=C(C=C4C(=C3)C=NN4)F
# In short: as §1
Target,log2 fold change [1],log2 fold change [2],log2 fold change [3],log2 fold change [4],log2 fold change [5],log2 fold change [6],log2 fold change [7],log2 fold change [8],log2 fold change [9],log2 fold change [10],log2 fold change [11],log2 fold change [12],log2 fold change [13],log2 fold change [14],log2 fold change [15],log2 fold change [16],log2 fold change [17],log2 fold change [18],log2 fold change [19],log2 fold change [20]
SYNE2 isoform 2 (UniProt Q8WXH0),inactive: 0.405,active: -0.672,inactive: -0.301,inactive: 0.084,inactive: -0.027,inactive: -0.007,inactive: 0.001,inactive: -0.045,inactive: 0.029,inactive: 0.046,inactive: -0.037,inactive: 0.059,inactive: 0.01,inactive: 0.078,inactive: 0.059,inactive: -0.024,inactive: 0.044,–,–,–
SUOX (UniProt P51687),inactive: 0.044,inactive: 0.047,inactive: -0.01,inactive: 0.027,inactive: 0.036,inactive: -0.112,inactive: -0.004,inactive: 0.013,inactive: 0.087,inactive: 0.123,inactive: -0.007,inactive: 0.003,inactive: 0.012,inactive: 0.042,inactive: 0.013,inactive: 0.016,inactive: 0.02,inactive: 0.046,inactive: -0.022,–
SYMPK (UniProt Q92797),inactive: -0.005,inactive: 0.179,inactive: -0.114,inactive: 0.189,inactive: 0.033,inactive: 0.093,inactive: -0.065,inactive: -0.101,inactive: 0.04,inactive: -0.029,inactive: -0.087,inactive: -0.057,inactive: 0.099,inactive: -0.026,inactive: -0.061,inactive: -0.115,inactive: -0.033,inactive: 0.005,inactive: -0.296,–
SUN1 isoform 9 (UniProt O94901),inactive: 0.055,inactive: 0.037,inactive: 0.032,inactive: 0.066,–,inactive: -0.052,inactive: 0.066,inactive: 0.057,inactive: 0.094,inactive: -0.028,–,inactive: -0.114,inactive: 0.067,inactive: -0.149,inactive: 0.042,inactive: 0.128,inactive: -0.05,active: -0.346,inactive: 0.115,–
SUCLA2 (UniProt Q9P2R7),inactive: 0.024,inactive: 0.016,inactive: -0.031,inactive: 0.049,inactive: -0.018,inactive: 0.037,inactive: -0.019,inactive: 0.004,inactive: -0.01,inactive: 0.02,inactive: -0.045,inactive: 0.014,inactive: -0.021,inactive: -0.107,inactive: -0.033,inactive: -0.034,inactive: 0.022,inactive: 0.072,inactive: -0.151,–
SUGP1 (UniProt Q8IWZ8),inactive: 0.039,inactive: 0.093,inactive: -0.029,inactive: -0.01,inactive: 0.005,inactive: 0,inactive: -0.012,inactive: -0.03,inactive: -0.001,inactive: 0.008,inactive: -0.024,inactive: -0.08,inactive: -0.023,inactive: -0.127,inactive: 0.061,inactive: -0.017,inactive: -0.003,inactive: -0.027,inactive: -0.003,–
STK38L (UniProt Q9Y2H1),inactive: -0.005,inactive: 0.018,inactive: 0.031,inactive: -0.015,inactive: 0.046,inactive: -0.368,inactive: 0.102,inactive: 0.008,inactive: -0.041,inactive: -0.084,inactive: -0.048,inactive: -0.181,inactive: -0.577,inactive: -0.148,inactive: 0.385,inactive: 0.051,inactive: -0.023,inactive: 0.05,inactive: -0.035,–
TBC1D10B (UniProt Q4KMP7),inactive: -0.013,inactive: 0.063,inactive: 0.039,inactive: -0.008,inactive: 0.036,inactive: -0.033,inactive: -0.109,inactive: -0.024,inactive: -0.033,inactive: -0.001,inactive: 0.025,active: -0.342,inactive: 0.009,inactive: -0.027,inactive: 0.021,inactive: 0.063,inactive: 0.057,inactive: -0.018,inactive: -0.006,–
TAF4 (UniProt O00268),inactive: 0.007,inactive: -0.022,inactive: 0.072,inactive: 0.127,inactive: 0.094,inactive: -0.063,inactive: -0.119,inactive: 0.089,inactive: -0.08,inactive: 0.07,inactive: 0.12,inactive: -0.091,inactive: -0.126,inactive: -0.081,inactive: 0.039,inactive: 0.061,inactive: -0.019,inactive: 0.031,inactive: -0.118,–
SUMF1 isoform 3 (UniProt Q8NBK3),inactive: -0.058,inactive: 0.232,inactive: 0.079,inactive: -0.084,–,inactive: 0.023,inactive: 0.081,inactive: 0.098,inactive: -0.062,inactive: 0.013,–,inactive: -0.143,inactive: 0.224,inactive: 0.005,inactive: -0.037,inactive: 0.119,inactive: -0.098,inactive: -0.018,inactive: 0.052,inactive: -0.38
SYNJ2 (UniProt O15056),inactive: 0.008,inactive: 0.24,inactive: -0.009,inactive: -0.008,inactive: -0.09,inactive: -0.006,inactive: 0.148,–,–,inactive: -0.135,inactive: 0.111,inactive: -0.096,inactive: 0.053,inactive: -0.152,inactive: 0.095,inactive: 0.071,–,inactive: -0.066,inactive: -0.079,inactive: 0.03
TARS2 (UniProt Q9BW92),inactive: 0.042,active: -0.721,inactive: 0.003,inactive: 0.086,inactive: 0.038,inactive: -0.03,inactive: 0.003,inactive: 0.001,inactive: -0.058,inactive: -0.076,inactive: -0.043,inactive: 0.009,inactive: -0.029,active: -0.219,inactive: 0.069,inactive: -0.022,inactive: 0.054,inactive: 0.021,inactive: -0.078,–
TBC1D12 (UniProt O60347),inactive: 0.01,inactive: 0.158,inactive: -0.09,inactive: 0.024,–,–,inactive: -0.056,inactive: 0.064,inactive: -0.063,–,–,inactive: -0.108,–,inactive: 0.009,–,–,inactive: 0.078,inactive: -0.045,inactive: -0.002,–
TARBP1 (UniProt Q13395),inactive: 0.015,inactive: 0.062,inactive: 0.027,inactive: -0.091,inactive: 0.065,inactive: -0.022,inactive: 0.012,inactive: -0.085,inactive: 0.019,inactive: 0.062,inactive: -0.007,inactive: -0.01,inactive: 0.003,inactive: -0.066,inactive: 0.009,inactive: 0.041,inactive: 0.184,inactive: 0.023,inactive: -0.074,–
TANK (UniProt Q92844),inactive: -0.019,inactive: -0.031,inactive: -0.048,inactive: 0.002,inactive: 0.053,inactive: -0.024,inactive: -0.028,inactive: 0.014,inactive: 0.01,inactive: -0.035,inactive: 0.087,inactive: -0.181,inactive: 0.034,inactive: 0.007,inactive: 0.127,inactive: -0.047,inactive: -0.053,inactive: 0.101,inactive: -0.024,–
SYK (UniProt P43405),inactive: 0.06,inactive: 0.144,inactive: 0.038,inactive: 0.031,inactive: -0.095,inactive: 0.131,–,inactive: -0.042,inactive: 0.074,inactive: -0.192,inactive: 0.056,inactive: -0.277,inactive: 0.241,inactive: 0.128,inactive: 0.048,inactive: 0.19,inactive: -0.425,inactive: -0.019,inactive: -0.1,–
STK39 (UniProt Q9UEW8),inactive: 0.064,inactive: 0.07,inactive: -0.096,inactive: 0.035,inactive: 0.06,inactive: 0.034,inactive: 0.019,inactive: 0.014,inactive: -0.025,inactive: 0.048,inactive: -0.006,active: -0.3,inactive: 0.022,inactive: -0.124,inactive: -0.018,inactive: -0.02,inactive: 0.007,inactive: 0.038,inactive: -0.09,–

# Full records as entered above. Values in the order: log2 fold change [1] | log2 fold change [2] | log2 fold change [3] | log2 fold change [4] | log2 fold change [5] | log2 fold change [6] | log2 fold change [7] | log2 fold change [8] | log2 fold change [9] | log2 fold change [10] | log2 fold change [11] | log2 fold change [12] | log2 fold change [13] | log2 fold change [14] | log2 fold change [15] | log2 fold change [16] | log2 fold change [17] | log2 fold change [18] | log2 fold change [19] | log2 fold change [20]
# STK38L (UniProt Q9Y2H1) is listed with inactive: -0.005 | inactive: 0.018 | inactive: 0.031 | inactive: -0.015 | inactive: 0.046 | inactive: -0.368 | inactive: 0.102 | inactive: 0.008 | inactive: -0.041 | inactive: -0.084 | inactive: -0.048 | inactive: -0.181 | inactive: -0.577 | inactive: -0.148 | inactive: 0.385 | inactive: 0.051 | inactive: -0.023 | inactive: 0.05 | inactive: -0.035 | –
# SYMPK (UniProt Q92797) is listed with inactive: -0.005 | inactive: 0.179 | inactive: -0.114 | inactive: 0.189 | inactive: 0.033 | inactive: 0.093 | inactive: -0.065 | inactive: -0.101 | inactive: 0.04 | inactive: -0.029 | inactive: -0.087 | inactive: -0.057 | inactive: 0.099 | inactive: -0.026 | inactive: -0.061 | inactive: -0.115 | inactive: -0.033 | inactive: 0.005 | inactive: -0.296 | –
